Results taken from publication PMC5766157.
No constants are given. Whether binding was seen depends on the method and setting. In cells and extracts the contact can be indirect. Some results given as binding are weak or reduced against the parent protein; the word gives no strength. For some of these results: Where a sequence is shown, tags or fusion partners need not be part of it.

Protein sequences, listed by entry. Tags and fused reporters are not part of them.
UniProt P13864: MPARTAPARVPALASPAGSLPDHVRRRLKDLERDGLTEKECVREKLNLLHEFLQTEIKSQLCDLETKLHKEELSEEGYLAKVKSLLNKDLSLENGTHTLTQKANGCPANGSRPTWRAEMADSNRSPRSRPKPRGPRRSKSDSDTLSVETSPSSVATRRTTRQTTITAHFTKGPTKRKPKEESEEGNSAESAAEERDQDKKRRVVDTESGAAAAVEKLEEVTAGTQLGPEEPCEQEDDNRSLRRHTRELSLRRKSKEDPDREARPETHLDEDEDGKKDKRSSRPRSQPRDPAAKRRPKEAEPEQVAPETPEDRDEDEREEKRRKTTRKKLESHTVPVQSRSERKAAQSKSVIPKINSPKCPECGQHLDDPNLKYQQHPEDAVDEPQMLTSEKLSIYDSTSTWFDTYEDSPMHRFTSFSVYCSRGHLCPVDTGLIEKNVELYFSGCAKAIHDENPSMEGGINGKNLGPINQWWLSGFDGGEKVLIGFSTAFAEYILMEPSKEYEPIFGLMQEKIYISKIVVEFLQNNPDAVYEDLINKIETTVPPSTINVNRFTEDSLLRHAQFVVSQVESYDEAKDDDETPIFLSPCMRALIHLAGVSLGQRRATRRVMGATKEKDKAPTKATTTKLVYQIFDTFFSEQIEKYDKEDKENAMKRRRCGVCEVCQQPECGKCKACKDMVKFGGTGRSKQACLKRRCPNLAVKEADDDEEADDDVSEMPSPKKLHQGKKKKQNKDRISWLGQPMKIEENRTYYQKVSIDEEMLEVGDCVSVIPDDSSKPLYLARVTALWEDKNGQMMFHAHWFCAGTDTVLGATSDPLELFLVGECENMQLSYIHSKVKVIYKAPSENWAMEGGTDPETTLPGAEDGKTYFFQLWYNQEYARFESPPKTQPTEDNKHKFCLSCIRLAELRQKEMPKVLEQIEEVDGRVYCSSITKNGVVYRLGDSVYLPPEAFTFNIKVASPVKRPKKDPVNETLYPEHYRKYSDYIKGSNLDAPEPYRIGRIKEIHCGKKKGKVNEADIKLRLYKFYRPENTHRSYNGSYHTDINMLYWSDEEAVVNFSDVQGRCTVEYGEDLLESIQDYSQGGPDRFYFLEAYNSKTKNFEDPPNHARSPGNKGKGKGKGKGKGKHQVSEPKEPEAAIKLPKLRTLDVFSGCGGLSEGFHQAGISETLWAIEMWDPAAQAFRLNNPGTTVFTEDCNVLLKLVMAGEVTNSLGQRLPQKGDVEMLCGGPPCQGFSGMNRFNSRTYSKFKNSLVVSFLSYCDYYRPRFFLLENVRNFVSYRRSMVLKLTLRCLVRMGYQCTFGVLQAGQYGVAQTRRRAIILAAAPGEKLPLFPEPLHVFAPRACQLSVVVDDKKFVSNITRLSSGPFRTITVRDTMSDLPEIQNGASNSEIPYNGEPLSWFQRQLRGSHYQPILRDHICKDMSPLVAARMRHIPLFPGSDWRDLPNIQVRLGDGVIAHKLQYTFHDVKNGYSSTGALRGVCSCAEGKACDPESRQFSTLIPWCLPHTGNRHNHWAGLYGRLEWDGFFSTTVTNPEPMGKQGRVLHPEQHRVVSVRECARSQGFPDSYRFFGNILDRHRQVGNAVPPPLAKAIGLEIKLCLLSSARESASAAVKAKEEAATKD

Columns and labels:
[1] = target: epitope-tagged DNMT3B from Dnmt3B^Tag/+ ES cells (mouse (endogenous in ES cells)) (UniProt O88509); assay: co-IP; anti-FLAG M2 magnetic beads on sonicated ES cell lysates (20 mM Tris-HCl pH 7.4, 200 mM NaCl, 2.5 mM MgCl2, 0.05% Tween-20), then western blot
[2] = target: FLAG-c-myc epitope-tagged DNMT1 (DNA methyltransferase 1) from Dnmt1^Tag/+ ES cells (mouse (endogenous in ES cells)) (UniProt P13864); assay: as above
[3] = target: T1, epitope-tagged UHRF1 from Uhrf1^Tag/+ ES cells (mouse (endogenous in ES cells)) (UniProt Q8VDF2); assay: as above
T1 sequence: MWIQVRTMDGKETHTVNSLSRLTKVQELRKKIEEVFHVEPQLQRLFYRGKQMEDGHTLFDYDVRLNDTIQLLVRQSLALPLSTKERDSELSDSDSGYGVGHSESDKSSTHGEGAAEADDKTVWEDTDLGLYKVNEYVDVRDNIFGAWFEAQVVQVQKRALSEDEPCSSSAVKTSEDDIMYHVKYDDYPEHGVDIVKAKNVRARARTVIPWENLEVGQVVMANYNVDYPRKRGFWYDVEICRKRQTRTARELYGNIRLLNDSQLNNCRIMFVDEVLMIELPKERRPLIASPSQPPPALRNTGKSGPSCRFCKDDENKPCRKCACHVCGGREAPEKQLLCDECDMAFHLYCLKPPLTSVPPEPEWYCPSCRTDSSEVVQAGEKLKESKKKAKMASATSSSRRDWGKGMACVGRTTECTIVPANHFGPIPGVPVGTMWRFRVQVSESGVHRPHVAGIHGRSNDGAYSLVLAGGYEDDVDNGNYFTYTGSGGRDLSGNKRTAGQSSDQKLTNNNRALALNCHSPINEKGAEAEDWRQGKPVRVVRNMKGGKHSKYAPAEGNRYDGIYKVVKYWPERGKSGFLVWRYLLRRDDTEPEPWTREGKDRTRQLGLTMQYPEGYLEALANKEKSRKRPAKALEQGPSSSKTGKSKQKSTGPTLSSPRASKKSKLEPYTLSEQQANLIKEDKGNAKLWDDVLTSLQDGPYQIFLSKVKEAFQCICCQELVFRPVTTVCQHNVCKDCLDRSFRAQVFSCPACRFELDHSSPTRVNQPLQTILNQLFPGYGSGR

[4] = target: FLAG-c-myc epitope-tagged DNMT1 (DNA methyltransferase 1) from Dnmt1^Tag/+ ES cells (mouse (endogenous in ES cells)) (UniProt P13864); assay: co-IP; nuclear extracts of Dnmt1^Tag/+ ES cells prepared with an engineered universal nuclease that digested both DNA and RNA

binding [1]: no binding
binding [2]: binds
binding [3]: no binding
binding [4]: binds
B1: DROSHA (Class 2 RNase III enzyme, Microprocessor component) (enzyme, UniProt Q5HZJ0 1-1373)
chain: MQGNTCHRMSYHPGRGCPRGRGGHGARPSAPAFRPQNLRLLHPQQPPAQYQYEPPSAPSSSYSNSQAPSFMPPRPDFVPYPPPAAPSAQGPLPPCPVRPPYPNHQMRHPFPVPPCFPPMPPPMPCPNNPPASGAPPGQGTFPFMVPPPSMPHPPPPPVMPQQVNYQYPPGYSHSFPPPGFNSYQNNSSSFPPSANSSSTPHFRHLPPYSLPKAQNERRSPERLKHYDDHRHRDHSHGRGERHRSLERRERGRSPERRRPESRYRSDYDRGRTPPPRHRSYERSRERDRERHRHREARRSPSLERSYKKEYKRSGRSYALPVAPEPAGCTPELPGEMIKTTESWAPPPENVNHRSPSREKKRARWEEEKDRWSDSQGSGKEKNYTSIKEKEAEEVPPEKTEEEEEELLKPVWIRCTHSESYYSSDPMDQVGDSTVVGTSRLRDLYDKFEEELGNRQEKAKAARPPWEPPKTKLDEDLESSSESECETDDDSTCSSSSDSEVFDVIAEIKRKKAHPDRLHDELWYNDPGQMNDGPLCKCSAKARRTGIRHSIYPGEEAIKPCRPMTNNAGRLFHYRITVSPPTNFLTDRPTVIEYDDHEYIFEGFSMFAHAPLTNIPLCKVIRFNIDYTIHFIEEMMPENFCVKGLELFSLFLFRDILELYDWNLKGPLFEDSPPCCPRFHFMPRFVRFLPDGGKEVLSMHQILLYLLRCSKALVPEEEIANMLQWEELEWQKYAEECKGMIVTNPGTKPSSVRIDQLDREQFNPEVITFPIIVHFGIRPAQLSYAGDPQYQKLWKSYVKLRHLLANSPKVKQTDKQKLAQREEALQKIRQKNTMRREVTVELSSQGFWKTGIRSDVCQHAMMLPVLTHHIRYHQCLMHLDKLIGYTFQDRCLLQLAMTHPSHHLNFGMNPDHARNSLSNCGIRQPKYGDRKVHHMHMRKKGINTLINIMSRLGQDDPTPSRINHNERLEFLGDAVVEFLTSVHLYYLFPSLEEGGLATYRTAIVQNQHLAMLAKKLELDRFMLYAHGPDLCRESDLRHAMANCFEALIGAVYLEGSLEEAKQLFGRLLFNDPDLREVWLNYPLHPLQLQEPNTDRQLIETSPVLQKLTEFEEAIGVIFTHVRLLARAFTLRTVGFNHLTLGHNQRMEFLGDSIMQLVATEYLFIHFPDHHEGHLTLLRSSLVNNRTQAKVAEELGMQEYAITNDKTKRPVALRTKTLADLLESFIAALYIDKDLEYVHTFMNVCFFPRLKEFILNQDWNDPKSQLQQCCLTLRTEGKEPDIPLYKTLQTVGPSHARTYTVAVYFKGERIGCGKGPSIQQAEMGAAMDALEKYNFPQMAHQKRFIERKYRQELKEMRWEREHQEREPEEAEDIKK
